# Laboratory results: PubChem BioAssay AID1347423 (Functional Genomics Laboratory (NCATS/FGL), 2020)
# The whole screen tested about 52,000 sequences, of which about 210 (0.4%) were called active.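 How the source made its calls: active means gene whose silencing raises cell survival under the drug, median off-target-corrected z-score across its silencing RNAs 2 or more; inactive means the rest.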 This is one part of the list.
# Assay: Resistance to Poly (ADP-Ribose) Polymerase inhibitor: Gene Identification via Genome-wide siRNA Screen
# Details: mouse BRCA2 R2336H ES cells, olaparib, CellTiter-Glo viability; hits give high values
# In short: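 Mouse BRCA2 R2336H ES cells were reverse-transfected with siRNA (20 nM final), treated at 48 h with 500 nM olaparib, and read by CellTiter-Glo after 72 h. Scores: MAD-based z per siRNA, median per gene, seed off-target correction.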
row,Sequence,z-score
1,CCUCUCUCAACCAGUGAAATT against Grb7,inactive: -1.25
2,GGAGAAAGAGACGGACAACTT against Fgfr1,inactive: 0.843
3,GGAGAAGCUACUCAACAAUTT against Ndufs8,inactive: 0.448
4,GCCACUGGUUCACCAUGCATT against Ugt1a12,inactive: -0.351
5,GGACCUGAGUGUGUCUCAGTT against Serpina3m,inactive: 0.445
6,GGAGGAAAUGAAAACCUUUTT against 2610507L03Rik,inactive: 0.595
7,GGAGUUUGAUCAGAUCCUATT against Asf1b,inactive: -0.3
8,GGAAGCAUGCGAGAUCUAUTT against Napa,inactive: 0.336
9,GGAAGAAAAGACUUAUCGUTT against 1200003C05Rik,inactive: 0.233
10,GGAAGCAGAUCAAAGACAUTT against Efhd2,inactive: 0.132
11,GGUGUUGAACGAGUGGAUCTT against 2410016F19Rik,inactive: -0.0446
12,GCUAUAUCCACCUUAUGUCTT against Pigq,inactive: -0.977
13,GGAUCCCAGGGAUCGAAUGTT against Osbpl9,inactive: -0.566
14,CCAUUCCUUAAAAGAGCAUTT against 1110058A15Rik,inactive: 1.71
15,GGGUGAUUUUUGUAAGAUATT against Mpp2,inactive: 0.798
16,CCUCUUACUGCUCUAUGGATT against Bzrpl1,inactive: 0.59
17,CGGACUAUAUAGAGAGGGATT against Purg,inactive: -1.1
18,CGUACAAGACAGGUCGGUCTT against MGC103250,inactive: 0.067
19,GGAGUCCACCCUUCAUCUGTT against Rps27a,inactive: -2.62
20,GGACAGGCAGCUAACACUATT against Foxk1,inactive: -1.61
21,CCAGGAACACUAAUAACACTT against 2310005E10Rik,inactive: -0.0607
22,CCAGUAUGAAAGCUUAAAGTT against Ipo13,inactive: 0.558
23,GCACUCUUUCCAAAAUAGUTT against Klf12,inactive: 0.519
24,GGCUCGGGUCUUUAACGAATT against Copg,inactive: -0.69
25,GGGAAAGUAAUUGAUAAACTT against Mtrr,inactive: 0.321
26,CCUGAUCUAAUCCUAAAUGTT against Pgr,inactive: 0.53

row,Sequence,z-score
1,GGGACAACCUGGAUGACAUTT against Coq6,inactive: -0.492
2,GCAGGUGAGAAAGUAUAAGTT against Mro,inactive: -0.0906
3,GGUUGCAUUUCUCAAGUAUTT against Olfr19,inactive: 0.261
4,GGACAUGAAGCAAGACCAATT against A230050P20Rik,inactive: 2.05
5,GCUGGAUGCAAAUGAUCUUTT against D17H6S56E-5,inactive: -0.23
6,GGAUGAGAAUUUUGAGGCCTT against 1700028O09Rik,inactive: 1.72
7,GGAGACAAAGAAGAGAAAGTT against Ddx24,inactive: 1.68
8,GGUUGUUUAGCCAGUGCACTT against 6330409N04Rik,inactive: 0.143
9,GCACUUAACAGAGAUACAATT against Cldn12,inactive: -1.11
10,GGAUCAAAAGGUAAAGAGATT against Rbbp5,inactive: 0.0347
11,GCUGAAGCAAGGUAGCGAUTT against Gbp5,inactive: 0.868
12,GCACUCUUCUUCUCUAGCATT against E330017N17,inactive: -0.188
13,GGCCGUUUGUGGUCUACUGTT against 3300001M20Rik,inactive: -1.59
14,GGGAAGUCAUUCACAUAUUTT against Rab39b,inactive: -0.241
15,GAAAAGAGCUGUAAGAAUGTT against 1700001G17Rik,inactive: -0.0616
16,GGAGAUCUGAAUGAAAAUUTT against Suhw2,inactive: -0.288
17,GGAUGUCAAGCAAAUUUUUTT against Slc25a13,inactive: 0.887
18,CCUUCCAACUCUUCUCCUCTT against H2-Tw3,inactive: 0.495
19,GCAGGAGGAUUAGUAAAUUTT against Ier2,inactive: -1.21
20,GGAAGUUAGCAUUUCUUCCTT against Xpnpep2,inactive: 0.425
21,GGAUGUAAUGCGAAGUUUUTT against Vps52,inactive: 0.186
22,GGAAAUAUGUAUCAGCUACTT against Smyd5,inactive: -1.14
23,CCACUGAUGUGAGAUAUAATT against Zp2,inactive: -1.61
24,CGGUGUCCAACCUUACACUTT against Slc8a2,inactive: 0.902
25,GGAGAGCAUGUGACCAAAATT against Safb2,inactive: -2.01
26,CGGGAAACGUGAAUUUUUUTT against Mtdh,inactive: 0.437

row,Sequence,z-score
1,GGGUUAGUCACCUCAUUUUTT against Abhd5,inactive: -0.345
2,GCUGGGAUAUGAAAUCUAUTT against Gprc6a,inactive: -0.148
3,GUAGUUGUUCUGAGAAAUCTT against Krtap16-1,inactive: 2.49
4,GGAACAGUGACUCUUCGGGTT against Sorbs1,inactive: -0.449
5,GGAGCUAAGUGAUUUUAGATT against Mtf1,inactive: 0.763
6,GGCUGUUCAUUUAGAAGAATT against Rps27l,inactive: -1.79
7,GGACAAUUCAGAGUGAUAGTT against Mog,inactive: -0.307
8,GCCUUAUGUGUUACAUUAUTT against Prkar1a,inactive: -1.18
9,GCUCCUUGGGCGAUUUCAGTT against 2010009L17Rik,inactive: -1.48
10,GGCUAUGGACAAUAUGACUTT against Fdx1,inactive: 0.737
11,CCUACCACAACAUGUAUCCTT against S100a11,inactive: -0.532
12,GGAUUUCUGUGGAGAUGGGTT against Hcr,inactive: 0.137
13,CCAGGAUUCCGACUGAAUCTT against 1810007P19Rik,inactive: 0.802
14,GCUAACUAUCCCUCCACUGTT against Retnla,inactive: -0.291
15,GGGCUUAAGGCUUAAGACATT against 4933421H10Rik,inactive: -0.651
16,CCUACCUAUUUAUCAAAGATT against Tmem23,inactive: 0.362
17,GGAUCUAUGAUCUCUCAGUTT against Gstt3,inactive: 0.00083
18,GGUCUCAGGUUGUUUUGAUTT against Rasl10b,inactive: -1.6
19,GCAGAUAGCUGCUACCCAUTT against 2410015B03Rik,inactive: -0.147
20,GGGAAAACAGCUCCUCACATT against Zfhx4,inactive: -1.71
21,CGAAGCCAAUAAAUGCAGCTT against 4930479M11Rik,inactive: -0.509
22,GCCCGAUAUUAUAACGGUGTT against Eomes,inactive: 1.79
23,UAGGAGAUAUCUGCUACCGTT against 7420402K12Rik,inactive: -1.96
24,GCUUUCCUAGACAAUCUAUTT against Arhgap19,inactive: -1.14
25,GGCAGAGACCACUAAUACCTT against D930015E06Rik,inactive: -1.08
26,CGUGAACAAAAGAAGGGCUTT against Scel,inactive: 0.22

# As entered above.
# Value of GGGAAAACAGCUCCUCACATT against Zfhx4 under z-score: inactive: -1.71
# Value of GGGCUUAAGGCUUAAGACATT against 4933421H10Rik under z-score: inactive: -0.651
# Value of UAGGAGAUAUCUGCUACCGTT against 7420402K12Rik under z-score: inactive: -1.96

# Remaining list, next part

row,Sequence,z-score
1,CGGAAAUUCUAGAAGCCAUTT against Kcnab2,inactive: 0.232
2,GCUUCGCUCGCAUUCUUAUTT against 1200013F24Rik,inactive: -1.85
3,GGCGAAGGUGUAGAAUCUCTT against A830094I09Rik,active: 2.23
4,GGCUUUUUAAAUGCUUCCCTT against Prr7,inactive: 0.16
5,GCAGAGGACAAGAAGCUUATT against H2afy3,inactive: 0.854
6,GGAGGAUAGUACCAAGCAATT against 1700034H14Rik,inactive: -1.41
7,CCCGUGGUAAUAGAAAACGTT against D5Ertd135e,inactive: 1.01
8,GGACAUACUAAUGAGGUCATT against Tbl1x,inactive: -0.489
9,GGAUGAACCUUCUGACCAATT against Ngfa,inactive: 0.462
10,GCUCAACAGGCUCAACUACTT against Cndp2,inactive: -0.241
11,GGAAGAAGGAACAUUUUGGTT against Fbxo25,inactive: 0.921
12,CAUCAAGACAUGACCGUCCTT against AI413582,inactive: 0.0953
13,GGAAGACAGAGAAACUCUATT against Clgn,inactive: 1.62
14,GGAGAGGAGUUCUUCAUUCTT against Adamts1,inactive: 0.0594
15,GCUGUCAUAAGUACUAAAUTT against Slc37a2,inactive: 0.643
16,GGGAUAUGGAAAACUAUGATT against 1700025E21Rik,inactive: 0.406
17,CGAGUCUCCCUGGACAUUGTT against Rara,inactive: -1.56
18,CCAGCUUUUGUUUGUUAGATT against D030016E14Rik,inactive: -0.895
19,GCUUUUGCACUGGAGAAGUTT against Glra3,inactive: 3.07
20,CCUCAUGAUCAAAGUGCGGTT against Tmprss6,inactive: 2.01
21,CCCAAGAUCUAAGAGUAUUTT against Rin3,inactive: -0.875
22,GGUCUGCUUUGUGCUGAUGTT against Olfr983,inactive: -0.583
23,CGAAGUUUGACACCUAUAUTT against Tinf2,inactive: -0.431
24,GACAACUUUUCCCUGUCAUTT against Prm3,inactive: 0.665
25,GCAAACCUGACAAAAAUAGTT against BC027057,inactive: 0.107
26,CCACCACAGAAUGCAUUACTT against V1rd11,inactive: -2.72

# In another format: entries from further up
row	Sequence	z-score
2	GCUUCGCUCGCAUUCUUAUTT against 1200013F24Rik	inactive: -1.85
9	GGAUGAACCUUCUGACCAATT against Ngfa	inactive: 0.462
17	CGAGUCUCCCUGGACAUUGTT against Rara	inactive: -1.56
19	GCUUUUGCACUGGAGAAGUTT against Glra3	inactive: 3.07
